This passage reports binding results from paper PMC8167055.

This experiment deals with Tubulin Polymerization Promoting Protein (TPPP/p25), human recombinant with hexaHis tag (human) (UniProt O94811). Put plainly: ELISA; plate coated with 5 μg/ml mCherry-LC3B, TPPP/p25 or SYN, blocked with BSA; HeLa cell extract at various concentrations; bound endogenous SQSTM1/p62 detected by SQSTM1/p62 antibody; only the target purified. (ELISA stands for enzyme-linked immunosorbent assay.)

These are yes or no findings as the source states them, for the method shown.

On to “endogenous sequestosome 1 (SQSTM1/p62) from HeLa cell extract (from UniProt Q13501 1-440)”, for which the binding result is recorded as “no binding”.
